In patent US9889234B2, “Scaffold for hard tissue regeneration containing active ingredient for treating osteoporosis and preparing method thereof” (KOREA INSTITUTE OF MACHINERY AND MATERIALS, priority 2014, dated 2018):

Test system: RAW 264.7 cells, the multinuclear osteoclasts treated with RANKL
Assay: Osteoclast proliferation activity, drug in medium
Type: cell-based
Details: compared with the case not treated; 1 μM or 200 μM
Experimental: The experiment was performed by the same manner as described in Experimental Example <2-3> except that RAW 264.7 cells, the multinuclear osteoclasts treated with RANKL (Receptor Activation for Nuclear Factor κB Ligand), were used instead of MC3T3-E1 cells (MC3T3-E1 Subclone 4, ATCC CRL-2593, obtained from ATCC), and the results are presented in FIG. 8.

Structure (SMILES): NCCCC(O)(P(=O)(O)O)P(=O)(O)O [Alendronate, reference compound]
- proliferation of osteoclasts: significantly inhibited
